Results reported in patent EP4628512A1 (Innovent Biologics (Suzhou) Co., Ltd., dated 2025).
Results are given in words; binding and its absence hold for the method and conditions named. Some entries that bind do so weakly or less than the wild type. Each block holds one binder with its values, some of them ahead of it.

By UniProt entry, the sequences of proteins in these tests, tags left out. Residues count along the entry.
UniProt O15123, residues 275-496: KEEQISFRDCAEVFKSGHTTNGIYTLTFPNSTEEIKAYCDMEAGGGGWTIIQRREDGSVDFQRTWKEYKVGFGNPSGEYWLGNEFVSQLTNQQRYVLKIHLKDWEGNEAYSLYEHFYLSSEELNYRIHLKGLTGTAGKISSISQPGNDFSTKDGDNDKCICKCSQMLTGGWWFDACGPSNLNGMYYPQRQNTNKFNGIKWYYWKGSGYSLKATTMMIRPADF

Target: hAng2-Fc protein (Beijing Sino Biological) (human) (UniProt O15123)
Test: flow cytometry blocking of hAng2-Fc binding to 293-tie2 cells; IC50 value not given

- binding: binds
B1: IAR044-032 (other)
chain: EVQLLESGGGLVQPGGSLRLSCAASGFALDYYAIGWFRQAPGKGLEGVSCISSGEGSTYYADSVKGRFTISRDNSKNTVYLQMNSLRAEDTAVYYCATDSRGDDVACEGLRRNEYDYWGQGTLVTVSSGGGGGGGGGGSDTGRPFVEMYSEIPEIIHMTEGRELVIPCRVTSPNITVTLKKFPLDTLIPDGKRIIWDSRKGFIISNATYKEIGLLTCEATVNGHLYKTNYLTHRQTNTIIDVVLSPSHGIELSVGEKLVLNCTARTELNVGIDFNWEYPSSKHQHKKLVNRDLKTQSGSEMKKFLSTLTIDGVTRSDQGLYTCAASSGLMTKKNSTFVRVHEKEKTHTCPPCPPCGGGGGGGGGGEVQLVESGGGLVQPGGSLRLSCAASGSSFSPYAMGWYRQAPGKQRELVSATSEGGFTLYADSVKGRFTISRDNSKNTVYLQMNSLRAEDTAVYYCYMHWRGSDPENYWGQGTQVTVSS
notes: No Fc; also called anti-VEGFA/VEGFC/Ang2 multi-specific fusion protein

- binding: binds
B2: IAR044-030 (other)
chain: EVQLLESGGGLVQPGGSLRLSCAASGFALDYYAIGWFRQAPGKGLEGVSCISSGEGSTYYADSVKGRFTISRDNSKNTVYLQMNSLRAEDTAVYYCATDSRGDDVACEGLRRNEYDYWGQGTLVTVSSGGGGGGGGGGSDTGRPFVEMYSEIPEIIHMTEGRELVIPCRVTSPNITVTLKKFPLDTLIPDGKRIIWDSRKGFIISNATYKEIGLLTCEATVNGHLYKTNYLTHRQTNTIIDVVLSPSHGIELSVGEKLVLNCTARTELNVGIDFNWEYPSSKHQHKKLVNRDLKTQSGSEMKKFLSTLTIDGVTRSDQGLYTCAASSGLMTKKNSTFVRVHEKESKYGPPCPPCPPCGGGGGGGGGGEVQLVESGGGLVQPGGSLRLSCAASGSSFSPYAMGWYRQAPGKQRELVSATSEGGFTLYADSVKGRFTISRDNSKNTVYLQMNSLRAEDTAVYYCYMHWRGSDPENYWGQGTQVTVSS
notes: as for B1
